Source: PMC5389555
Numbering of substitutions follows the chain as printed. Results are given in words; binding and its absence hold for the method and conditions named. Binding seen in cells or lysates may run through a third protein. Binding calls can cover weak binding; strength is not graded here. For some assays here: Where a sequence is shown, tags or fusion partners need not be part of it.

Columns and labels:
[1] = biological target: T1, Drosha (endogenous) (human (endogenous in HEK293T)) (UniProt Q9NRR4); experiment: co-IP; endogenous Drosha precipitated from HEK293T lysates (cells ± 2 μM 99021, 48 h) with rabbit anti-Drosha antibody on Protein G Dynabeads, 4°C overnight; rabbit IgG control; blots for DGCR8 and p72
T1 sequence: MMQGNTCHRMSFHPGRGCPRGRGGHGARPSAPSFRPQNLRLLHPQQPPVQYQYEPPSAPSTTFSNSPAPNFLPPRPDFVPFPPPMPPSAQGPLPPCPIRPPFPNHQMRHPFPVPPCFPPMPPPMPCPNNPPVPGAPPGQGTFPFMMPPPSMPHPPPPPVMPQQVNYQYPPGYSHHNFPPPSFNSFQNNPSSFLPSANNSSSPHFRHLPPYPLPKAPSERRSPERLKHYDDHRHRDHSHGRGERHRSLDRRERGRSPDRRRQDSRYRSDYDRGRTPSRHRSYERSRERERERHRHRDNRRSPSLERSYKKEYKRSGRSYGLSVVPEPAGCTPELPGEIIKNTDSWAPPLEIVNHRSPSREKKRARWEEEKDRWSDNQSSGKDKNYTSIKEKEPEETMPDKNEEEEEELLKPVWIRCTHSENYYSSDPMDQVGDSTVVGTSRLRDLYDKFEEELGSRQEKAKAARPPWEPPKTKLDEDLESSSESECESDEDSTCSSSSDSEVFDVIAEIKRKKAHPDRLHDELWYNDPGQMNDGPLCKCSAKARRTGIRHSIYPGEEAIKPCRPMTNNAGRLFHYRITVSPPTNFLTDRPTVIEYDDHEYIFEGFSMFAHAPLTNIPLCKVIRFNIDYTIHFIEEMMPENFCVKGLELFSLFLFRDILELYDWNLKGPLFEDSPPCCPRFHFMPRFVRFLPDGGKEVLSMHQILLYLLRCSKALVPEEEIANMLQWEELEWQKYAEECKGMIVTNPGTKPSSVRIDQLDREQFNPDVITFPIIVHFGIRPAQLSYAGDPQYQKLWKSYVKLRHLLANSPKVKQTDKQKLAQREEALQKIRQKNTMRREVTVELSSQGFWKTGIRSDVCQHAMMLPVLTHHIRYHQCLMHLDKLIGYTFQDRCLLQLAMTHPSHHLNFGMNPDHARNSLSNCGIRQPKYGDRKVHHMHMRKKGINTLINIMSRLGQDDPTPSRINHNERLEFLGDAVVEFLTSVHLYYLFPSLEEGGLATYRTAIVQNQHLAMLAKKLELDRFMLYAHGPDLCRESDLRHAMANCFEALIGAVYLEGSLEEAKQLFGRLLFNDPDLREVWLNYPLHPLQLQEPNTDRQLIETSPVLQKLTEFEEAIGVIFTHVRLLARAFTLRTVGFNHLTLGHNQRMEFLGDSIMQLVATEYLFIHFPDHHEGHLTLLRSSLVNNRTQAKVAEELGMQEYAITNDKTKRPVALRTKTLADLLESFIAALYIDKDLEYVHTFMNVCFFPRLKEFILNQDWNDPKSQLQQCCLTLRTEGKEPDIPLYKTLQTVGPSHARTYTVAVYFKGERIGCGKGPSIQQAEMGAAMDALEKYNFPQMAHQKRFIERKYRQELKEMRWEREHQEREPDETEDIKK

Flag-Drosha-S300E,S302D = biological target: T2, Flag-Drosha-S300E,S302D (UniProt Q9NRR4); experiment: co-IP; HEK293T transfected with Flag-Drosha (WT or S300E,S302D) ± GSK3β-S9A or GSK3β-K85R, 48 h; lysates pre-cleared, anti-Flag M2 beads, 4°C overnight; blots for GSK3β, Flag, DGCR8, p72
T2 sequence: T1 sequence with S300E, S302D

Substance: p72 (DDX17) (endogenous) (human (endogenous in HEK293T))
- binding [1]: binds
- binding (Flag-Drosha-S300E,S302D): binds
